In publication PMC5432311 one finds binding data, which are given here for two substances.

Sequences of proteins named here, by UniProt entry; tags and fusion partners are left off. Residues count along the entry.
UniProt O14746: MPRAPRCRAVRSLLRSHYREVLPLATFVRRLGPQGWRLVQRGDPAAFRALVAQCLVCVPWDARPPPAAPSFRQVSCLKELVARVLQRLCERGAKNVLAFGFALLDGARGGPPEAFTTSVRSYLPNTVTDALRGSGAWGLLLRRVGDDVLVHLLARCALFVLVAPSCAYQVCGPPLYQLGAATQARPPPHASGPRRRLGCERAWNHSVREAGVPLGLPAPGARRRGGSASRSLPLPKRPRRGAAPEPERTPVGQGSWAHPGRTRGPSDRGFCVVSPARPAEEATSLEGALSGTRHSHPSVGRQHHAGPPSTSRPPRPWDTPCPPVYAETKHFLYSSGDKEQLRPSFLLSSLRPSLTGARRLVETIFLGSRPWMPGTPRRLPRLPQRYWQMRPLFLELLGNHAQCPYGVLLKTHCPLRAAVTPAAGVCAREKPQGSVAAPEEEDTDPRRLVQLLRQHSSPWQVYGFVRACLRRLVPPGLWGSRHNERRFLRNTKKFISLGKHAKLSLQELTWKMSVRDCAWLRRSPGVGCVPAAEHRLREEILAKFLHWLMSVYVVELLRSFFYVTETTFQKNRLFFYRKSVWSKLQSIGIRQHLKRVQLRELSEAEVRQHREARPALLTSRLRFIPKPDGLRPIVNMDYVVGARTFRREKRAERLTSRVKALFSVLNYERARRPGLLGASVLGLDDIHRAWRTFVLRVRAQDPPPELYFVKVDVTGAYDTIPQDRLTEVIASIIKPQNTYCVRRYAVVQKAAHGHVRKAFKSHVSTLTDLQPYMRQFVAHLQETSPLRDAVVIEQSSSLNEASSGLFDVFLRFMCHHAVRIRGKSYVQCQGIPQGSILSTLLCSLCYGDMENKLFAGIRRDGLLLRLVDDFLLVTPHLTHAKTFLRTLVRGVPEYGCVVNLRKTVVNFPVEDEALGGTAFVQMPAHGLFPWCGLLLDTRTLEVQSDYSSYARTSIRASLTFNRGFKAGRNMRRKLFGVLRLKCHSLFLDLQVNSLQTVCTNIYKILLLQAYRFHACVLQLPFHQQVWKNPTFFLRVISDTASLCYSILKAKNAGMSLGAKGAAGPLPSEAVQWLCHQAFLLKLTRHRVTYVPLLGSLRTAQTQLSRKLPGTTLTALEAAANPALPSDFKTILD
UniProt P19838, residues 1-433: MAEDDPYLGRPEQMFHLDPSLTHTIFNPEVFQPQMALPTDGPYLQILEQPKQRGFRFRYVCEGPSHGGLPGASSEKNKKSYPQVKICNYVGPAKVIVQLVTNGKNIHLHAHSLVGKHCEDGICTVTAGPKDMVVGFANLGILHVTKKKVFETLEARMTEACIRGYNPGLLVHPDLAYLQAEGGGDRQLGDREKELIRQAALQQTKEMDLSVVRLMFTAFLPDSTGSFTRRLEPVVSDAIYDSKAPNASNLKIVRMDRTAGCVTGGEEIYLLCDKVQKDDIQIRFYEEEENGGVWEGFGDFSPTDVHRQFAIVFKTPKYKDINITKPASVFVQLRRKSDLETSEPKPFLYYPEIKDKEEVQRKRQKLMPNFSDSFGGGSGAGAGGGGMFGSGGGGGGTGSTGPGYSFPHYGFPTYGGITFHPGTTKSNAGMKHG
UniProt Q04206: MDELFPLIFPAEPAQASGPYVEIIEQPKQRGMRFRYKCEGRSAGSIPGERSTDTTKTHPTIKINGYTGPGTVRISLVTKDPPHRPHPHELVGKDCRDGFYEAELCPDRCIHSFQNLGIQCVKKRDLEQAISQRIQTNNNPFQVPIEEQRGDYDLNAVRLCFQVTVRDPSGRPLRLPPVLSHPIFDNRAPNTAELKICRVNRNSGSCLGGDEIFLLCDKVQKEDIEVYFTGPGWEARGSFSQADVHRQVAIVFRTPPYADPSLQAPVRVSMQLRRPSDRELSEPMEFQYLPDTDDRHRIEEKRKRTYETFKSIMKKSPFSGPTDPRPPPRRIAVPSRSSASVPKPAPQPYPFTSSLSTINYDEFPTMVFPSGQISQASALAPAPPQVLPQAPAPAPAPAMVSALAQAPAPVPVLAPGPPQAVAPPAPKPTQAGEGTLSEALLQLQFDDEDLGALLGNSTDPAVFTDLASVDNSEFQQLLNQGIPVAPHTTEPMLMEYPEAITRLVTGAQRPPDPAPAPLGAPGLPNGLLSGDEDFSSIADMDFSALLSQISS

These are yes or no findings as the source states them, for the method shown. Binding seen in cells or lysates may run through a third protein. Some binding calls cover weakened binding; strength is not graded here.

The target in the assay is human telomerase reverse transcriptase (hTERT) (human) (UniProt O14746). Description: co-IP; MKN45 cell line; which protein was precipitated and which was blotted is not told; no Co-IP methods given.

In the case of “p50 subunit of NF-κB (from UniProt P19838 1-433)”, the binding entry is “binds”. On to “p65 subunit of NF-κB (from UniProt Q04206 1-551)”, for which the binding result is given as “binds”.
